Test results as given in patent US20120309759.
The exact form of at least one protein or probe is not confirmed. Tags and fusion partners may be left off the protein sequences shown.

How the values were obtained:
[1] = system: T1, TERT (full-length telomerase catalytic subunit) (Tribolium castaneum); assay: structure; settings: chimera: RNA rCrUrGrArCrCrU template, linker u:rGrArC RNA, remainder DNA; 2.7 A co-crystal structure with Mg2+ and dNTPaS; 3' end extended by three nucleotides in the drop; same affinity stated for all three hairpins; purified recombinant protein; protein details: N-terminal His6 cleaved with TEV
T1 sequence: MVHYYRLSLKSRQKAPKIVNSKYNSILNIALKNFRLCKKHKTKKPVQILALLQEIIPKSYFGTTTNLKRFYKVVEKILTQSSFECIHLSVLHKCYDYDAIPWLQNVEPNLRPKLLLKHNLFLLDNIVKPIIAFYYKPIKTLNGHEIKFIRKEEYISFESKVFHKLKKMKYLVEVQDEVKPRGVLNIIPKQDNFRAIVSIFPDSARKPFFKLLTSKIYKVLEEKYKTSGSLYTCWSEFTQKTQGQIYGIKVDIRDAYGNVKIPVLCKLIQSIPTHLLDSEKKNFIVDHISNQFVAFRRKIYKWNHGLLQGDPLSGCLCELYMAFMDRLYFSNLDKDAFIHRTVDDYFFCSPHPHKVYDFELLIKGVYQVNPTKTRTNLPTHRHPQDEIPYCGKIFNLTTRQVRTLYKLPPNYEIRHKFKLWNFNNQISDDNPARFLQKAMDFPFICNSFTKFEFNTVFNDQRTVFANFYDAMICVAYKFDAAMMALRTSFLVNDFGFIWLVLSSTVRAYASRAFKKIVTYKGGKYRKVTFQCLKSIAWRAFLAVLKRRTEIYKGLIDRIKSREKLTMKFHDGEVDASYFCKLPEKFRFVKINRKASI

[2] = system: T1, TERT (full-length telomerase catalytic subunit) (Tribolium castaneum); assay: binding assay; settings: chimera: RNA rCrUrGrArCrCrU, remainder DNA, stated same binding affinity and RT activity as the 21mer, no value given, purified recombinant protein, protein details: N-terminal His6 cleaved with TEV

CUGACCUGACTTCGGTCAGGT [21mer RNA-DNA hairpin (Chim21m)]
binding result [1]: binds

CUGACCUGTTCGCAGGT [17mer RNA-DNA hairpin]
binding result ([2]; linker u:rG, text calls it 18mer): binds

CUGACCUTTCGAGGT [15mer RNA-DNA hairpin]
binding result ([2]; linker u): binds
